This is an account of results in the supplement of paper PMC10849652.

Protein sequences, listed by entry. Tags and fused reporters are not part of them. Lines headed by an entry give the natural chain unless they say otherwise; changes in a name come on top.
UniProt O75935, whole entry, looked up: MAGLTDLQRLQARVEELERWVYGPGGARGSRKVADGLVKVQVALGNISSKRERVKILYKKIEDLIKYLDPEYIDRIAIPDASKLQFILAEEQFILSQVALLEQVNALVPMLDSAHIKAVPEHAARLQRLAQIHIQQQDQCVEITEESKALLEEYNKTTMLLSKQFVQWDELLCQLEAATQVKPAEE
UniProt Q5T1V6: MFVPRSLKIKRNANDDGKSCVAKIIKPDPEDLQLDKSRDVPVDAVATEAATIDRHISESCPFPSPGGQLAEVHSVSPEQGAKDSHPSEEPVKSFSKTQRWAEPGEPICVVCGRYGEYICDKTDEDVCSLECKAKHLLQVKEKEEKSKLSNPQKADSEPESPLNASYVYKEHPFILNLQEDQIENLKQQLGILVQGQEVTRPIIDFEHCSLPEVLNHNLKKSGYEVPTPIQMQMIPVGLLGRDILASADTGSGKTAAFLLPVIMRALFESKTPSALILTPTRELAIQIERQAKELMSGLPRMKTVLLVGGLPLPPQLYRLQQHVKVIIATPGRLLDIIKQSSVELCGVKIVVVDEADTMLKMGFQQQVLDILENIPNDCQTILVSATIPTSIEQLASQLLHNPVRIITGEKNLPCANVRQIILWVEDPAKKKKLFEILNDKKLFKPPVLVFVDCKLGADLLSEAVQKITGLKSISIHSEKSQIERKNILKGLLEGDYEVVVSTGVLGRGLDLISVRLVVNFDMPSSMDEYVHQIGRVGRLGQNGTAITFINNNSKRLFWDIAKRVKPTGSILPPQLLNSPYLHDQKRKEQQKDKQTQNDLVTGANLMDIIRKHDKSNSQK
UniProt Q5VZ89: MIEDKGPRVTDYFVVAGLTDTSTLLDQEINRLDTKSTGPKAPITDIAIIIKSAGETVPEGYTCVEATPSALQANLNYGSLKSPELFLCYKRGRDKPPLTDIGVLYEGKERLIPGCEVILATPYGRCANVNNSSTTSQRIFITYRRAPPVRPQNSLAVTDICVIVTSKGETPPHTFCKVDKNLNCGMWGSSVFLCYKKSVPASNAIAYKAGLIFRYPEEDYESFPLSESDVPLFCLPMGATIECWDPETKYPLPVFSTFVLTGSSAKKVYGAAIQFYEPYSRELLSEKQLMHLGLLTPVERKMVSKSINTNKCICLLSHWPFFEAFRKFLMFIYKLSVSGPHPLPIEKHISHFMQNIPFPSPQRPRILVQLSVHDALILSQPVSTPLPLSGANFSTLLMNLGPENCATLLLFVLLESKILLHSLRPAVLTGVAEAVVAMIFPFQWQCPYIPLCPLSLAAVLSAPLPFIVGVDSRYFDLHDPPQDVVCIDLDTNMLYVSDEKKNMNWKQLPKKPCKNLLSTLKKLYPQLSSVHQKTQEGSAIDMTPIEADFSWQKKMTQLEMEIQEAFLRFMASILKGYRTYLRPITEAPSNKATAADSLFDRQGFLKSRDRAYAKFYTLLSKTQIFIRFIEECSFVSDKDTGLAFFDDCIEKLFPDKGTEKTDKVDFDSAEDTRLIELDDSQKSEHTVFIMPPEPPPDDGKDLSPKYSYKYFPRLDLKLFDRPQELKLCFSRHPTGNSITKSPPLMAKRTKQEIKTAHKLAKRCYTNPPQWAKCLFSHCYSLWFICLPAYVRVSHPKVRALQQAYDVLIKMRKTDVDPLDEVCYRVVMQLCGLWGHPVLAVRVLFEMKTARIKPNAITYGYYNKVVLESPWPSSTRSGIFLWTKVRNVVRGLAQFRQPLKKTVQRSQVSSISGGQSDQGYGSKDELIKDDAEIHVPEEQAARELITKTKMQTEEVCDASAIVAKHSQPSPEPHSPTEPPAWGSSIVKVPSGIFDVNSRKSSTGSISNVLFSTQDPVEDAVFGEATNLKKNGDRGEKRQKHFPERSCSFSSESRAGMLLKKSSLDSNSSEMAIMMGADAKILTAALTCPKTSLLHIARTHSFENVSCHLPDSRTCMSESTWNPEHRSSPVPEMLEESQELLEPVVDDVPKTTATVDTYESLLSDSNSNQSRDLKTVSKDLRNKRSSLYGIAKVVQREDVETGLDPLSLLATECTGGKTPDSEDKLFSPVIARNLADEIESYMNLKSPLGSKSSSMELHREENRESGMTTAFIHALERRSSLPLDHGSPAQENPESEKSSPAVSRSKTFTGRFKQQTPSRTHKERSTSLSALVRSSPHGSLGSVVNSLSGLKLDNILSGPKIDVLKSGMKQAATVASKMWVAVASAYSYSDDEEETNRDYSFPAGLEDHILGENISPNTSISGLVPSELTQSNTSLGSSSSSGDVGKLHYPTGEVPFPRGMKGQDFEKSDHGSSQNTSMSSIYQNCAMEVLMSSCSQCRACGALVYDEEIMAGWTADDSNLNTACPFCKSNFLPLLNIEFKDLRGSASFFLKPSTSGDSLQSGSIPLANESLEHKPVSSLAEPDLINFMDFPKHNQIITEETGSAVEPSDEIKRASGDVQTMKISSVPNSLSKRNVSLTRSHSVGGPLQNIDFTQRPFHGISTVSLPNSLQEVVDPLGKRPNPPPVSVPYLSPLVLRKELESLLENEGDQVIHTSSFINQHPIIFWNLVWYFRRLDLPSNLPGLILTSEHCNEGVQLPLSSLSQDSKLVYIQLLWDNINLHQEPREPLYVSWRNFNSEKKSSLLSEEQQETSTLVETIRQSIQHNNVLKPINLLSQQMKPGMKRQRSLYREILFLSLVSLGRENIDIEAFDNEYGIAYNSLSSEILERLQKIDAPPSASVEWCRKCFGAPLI
UniProt P17661, whole entry, looked up: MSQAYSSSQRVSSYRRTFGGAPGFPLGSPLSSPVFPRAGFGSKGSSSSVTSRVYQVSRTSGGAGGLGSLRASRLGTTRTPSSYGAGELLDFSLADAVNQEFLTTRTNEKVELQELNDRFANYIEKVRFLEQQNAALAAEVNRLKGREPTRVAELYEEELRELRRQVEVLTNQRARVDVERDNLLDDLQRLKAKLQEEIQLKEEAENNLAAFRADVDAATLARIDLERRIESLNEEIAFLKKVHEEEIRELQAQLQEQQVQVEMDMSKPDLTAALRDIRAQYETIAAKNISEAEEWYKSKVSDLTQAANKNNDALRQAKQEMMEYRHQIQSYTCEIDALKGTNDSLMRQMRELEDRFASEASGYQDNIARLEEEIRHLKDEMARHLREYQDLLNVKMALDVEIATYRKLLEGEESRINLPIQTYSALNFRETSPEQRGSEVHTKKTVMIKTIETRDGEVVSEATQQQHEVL
UniProt Q7Z4W1: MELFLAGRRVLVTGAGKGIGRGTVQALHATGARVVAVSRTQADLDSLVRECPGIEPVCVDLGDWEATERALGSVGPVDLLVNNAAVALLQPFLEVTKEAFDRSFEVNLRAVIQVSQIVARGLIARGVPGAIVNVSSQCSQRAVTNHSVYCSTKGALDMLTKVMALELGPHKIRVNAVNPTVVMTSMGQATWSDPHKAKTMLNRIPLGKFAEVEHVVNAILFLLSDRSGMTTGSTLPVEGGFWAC
UniProt Q16643: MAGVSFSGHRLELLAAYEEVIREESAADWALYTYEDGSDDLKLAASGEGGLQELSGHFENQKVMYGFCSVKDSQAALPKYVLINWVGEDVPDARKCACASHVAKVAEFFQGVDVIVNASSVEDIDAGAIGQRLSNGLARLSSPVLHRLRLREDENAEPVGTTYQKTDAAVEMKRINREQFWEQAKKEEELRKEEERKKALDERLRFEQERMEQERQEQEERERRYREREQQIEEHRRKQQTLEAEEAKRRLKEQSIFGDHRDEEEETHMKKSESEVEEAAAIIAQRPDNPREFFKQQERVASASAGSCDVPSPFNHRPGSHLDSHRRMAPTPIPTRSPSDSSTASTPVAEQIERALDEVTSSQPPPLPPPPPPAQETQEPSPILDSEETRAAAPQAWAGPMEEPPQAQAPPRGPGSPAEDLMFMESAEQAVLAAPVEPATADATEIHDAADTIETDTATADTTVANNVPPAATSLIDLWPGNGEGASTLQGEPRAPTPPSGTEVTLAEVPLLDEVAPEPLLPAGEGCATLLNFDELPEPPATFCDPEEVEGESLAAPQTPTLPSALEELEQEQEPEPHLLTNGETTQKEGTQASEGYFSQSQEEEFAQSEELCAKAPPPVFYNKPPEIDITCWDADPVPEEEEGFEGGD
UniProt Q8NHQ9: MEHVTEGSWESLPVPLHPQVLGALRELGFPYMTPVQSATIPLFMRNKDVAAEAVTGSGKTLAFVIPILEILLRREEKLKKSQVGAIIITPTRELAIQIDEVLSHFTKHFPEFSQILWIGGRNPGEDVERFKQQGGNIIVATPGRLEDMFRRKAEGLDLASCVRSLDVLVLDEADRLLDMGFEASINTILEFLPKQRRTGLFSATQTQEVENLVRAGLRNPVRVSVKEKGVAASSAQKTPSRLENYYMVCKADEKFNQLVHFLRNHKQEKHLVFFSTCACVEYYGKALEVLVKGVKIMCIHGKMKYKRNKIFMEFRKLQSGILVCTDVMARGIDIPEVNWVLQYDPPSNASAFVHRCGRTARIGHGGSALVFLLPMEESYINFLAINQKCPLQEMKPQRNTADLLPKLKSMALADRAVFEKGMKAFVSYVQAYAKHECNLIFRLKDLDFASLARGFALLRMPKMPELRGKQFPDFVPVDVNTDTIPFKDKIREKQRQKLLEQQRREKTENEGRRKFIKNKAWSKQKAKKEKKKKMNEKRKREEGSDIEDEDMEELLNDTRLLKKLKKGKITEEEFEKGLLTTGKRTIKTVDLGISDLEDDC
UniProt Q9BTE1, whole entry, looked up: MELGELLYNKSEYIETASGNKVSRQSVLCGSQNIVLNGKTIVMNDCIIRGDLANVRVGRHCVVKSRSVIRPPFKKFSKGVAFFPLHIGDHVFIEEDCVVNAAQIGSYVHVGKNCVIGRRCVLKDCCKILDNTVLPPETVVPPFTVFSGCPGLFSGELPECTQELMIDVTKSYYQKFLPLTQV
UniProt Q9NVP1: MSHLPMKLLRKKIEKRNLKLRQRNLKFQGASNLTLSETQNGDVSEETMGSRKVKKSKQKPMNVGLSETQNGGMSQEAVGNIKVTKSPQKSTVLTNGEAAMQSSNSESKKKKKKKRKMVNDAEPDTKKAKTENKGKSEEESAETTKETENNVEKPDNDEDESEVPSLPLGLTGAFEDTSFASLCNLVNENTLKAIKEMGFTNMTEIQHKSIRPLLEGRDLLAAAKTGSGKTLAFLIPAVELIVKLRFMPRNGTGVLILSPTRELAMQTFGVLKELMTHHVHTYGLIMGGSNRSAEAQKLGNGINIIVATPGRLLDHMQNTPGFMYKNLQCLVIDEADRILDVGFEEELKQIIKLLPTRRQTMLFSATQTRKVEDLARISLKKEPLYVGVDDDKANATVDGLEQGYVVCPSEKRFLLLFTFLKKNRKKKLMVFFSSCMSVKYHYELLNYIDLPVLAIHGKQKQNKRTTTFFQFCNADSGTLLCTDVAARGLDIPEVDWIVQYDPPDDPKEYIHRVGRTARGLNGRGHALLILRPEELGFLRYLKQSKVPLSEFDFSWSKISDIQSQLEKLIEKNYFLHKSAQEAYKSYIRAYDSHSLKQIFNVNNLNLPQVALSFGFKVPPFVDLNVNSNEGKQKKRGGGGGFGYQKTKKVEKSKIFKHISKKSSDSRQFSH
UniProt Q7L014: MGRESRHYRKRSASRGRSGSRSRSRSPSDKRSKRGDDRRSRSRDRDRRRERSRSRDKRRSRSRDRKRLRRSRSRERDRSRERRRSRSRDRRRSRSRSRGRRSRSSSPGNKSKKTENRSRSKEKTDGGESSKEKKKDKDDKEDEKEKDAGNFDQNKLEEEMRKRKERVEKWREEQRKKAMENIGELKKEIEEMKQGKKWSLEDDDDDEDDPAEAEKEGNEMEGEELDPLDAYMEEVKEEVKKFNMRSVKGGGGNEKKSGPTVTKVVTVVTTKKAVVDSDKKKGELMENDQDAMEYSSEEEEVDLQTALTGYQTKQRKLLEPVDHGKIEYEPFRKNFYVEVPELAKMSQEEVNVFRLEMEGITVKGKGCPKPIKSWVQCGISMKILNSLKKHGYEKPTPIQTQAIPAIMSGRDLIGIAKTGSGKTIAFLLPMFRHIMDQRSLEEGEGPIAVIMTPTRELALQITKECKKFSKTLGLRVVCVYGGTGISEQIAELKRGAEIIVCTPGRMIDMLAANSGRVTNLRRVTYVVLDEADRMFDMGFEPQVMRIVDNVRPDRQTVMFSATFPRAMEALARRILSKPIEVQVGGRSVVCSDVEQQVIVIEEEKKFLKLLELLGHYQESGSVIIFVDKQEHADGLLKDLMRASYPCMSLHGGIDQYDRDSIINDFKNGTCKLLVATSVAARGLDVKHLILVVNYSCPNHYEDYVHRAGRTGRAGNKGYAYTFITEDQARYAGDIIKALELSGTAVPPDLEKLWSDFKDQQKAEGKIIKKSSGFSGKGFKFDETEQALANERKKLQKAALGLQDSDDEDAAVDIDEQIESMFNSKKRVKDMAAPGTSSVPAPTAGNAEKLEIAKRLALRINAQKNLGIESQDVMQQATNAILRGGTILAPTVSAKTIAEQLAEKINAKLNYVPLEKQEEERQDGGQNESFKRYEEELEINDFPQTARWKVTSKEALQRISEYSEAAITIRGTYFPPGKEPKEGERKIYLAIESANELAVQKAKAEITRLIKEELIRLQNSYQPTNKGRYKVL

This is one part of the list.

Compound in one assay: CCN(CCCOc1ccc2c(Nc3cc(CC(=O)Nc4cccc(F)c4)[nH]n3)ncnc2c1)CCOP(=O)(O)O [barasertib]
Description: log2 fold change, soluble protein after heating vs DMSO (PISA); higher = thermal stabilisation; K562 lysate, 10 uM; active = over 0.2 and 3.5 SD of the protein, either way, in both replicates (recomputed). The essentials: (§1)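 Thermal stability, expressed as log-two fold change relative to solvent controls, is given from duplicates. Crude K562 extract in PBS pH 7.4 with 1 mM MgCl2, at 1 mg/mL protein, was treated with 10 μM compound for 30 min and heated in aliquots for 3 min across 48°C-58°C. After pooling, adjustment to 0.5% NP-40 at 4°C and centrifugation at 21,000xg for 90 min, supernatant protein was measured by TMTpro 16plex LC-MS/MS with channel sums equalised.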
Regarding DDX39A (UniProt O00148), the log2 fold change is inactive: 0.047.
As to DCTN3 (UniProt O75935), the log2 fold change is inactive: 0.036.
Still for that read-out and setting: next, DDX20 (UniProt Q9UHI6): inactive: 0.011; DDX59 (UniProt Q5T1V6): inactive: -0.004; DEK (UniProt P35659): inactive: -0.027.
On to DENND4C (UniProt Q5VZ89), for which the log2 fold change is inactive: 0.034.
Same read-out and setting: next, DCP2 (UniProt Q8IU60): inactive: 0.014.
On the same count and under the same terms, with CYP24A1 (UniProt Q07973) the figure was inactive: -0.055.
The same measure, in the same setting: with DCUN1D1 (UniProt Q96GG9) the figure was inactive: -0.018.
Turning to DAG1 (UniProt Q14118), the log2 fold change was inactive: -0.001.
With DAZAP1 (UniProt Q96EP5), the log2 fold change is inactive: -0.017.
The same measure, in the same setting: next, DAB2 (UniProt P98082): inactive: 0.028; DDAH2 (UniProt O95865): inactive: 0.199; DES (UniProt P17661): inactive: -0.001.
The same measure, in the same setting: with DDX6 (UniProt P26196) the figure was inactive: -0.019; with DCAF6 isoform 3 (UniProt Q58WW2), inactive: 0.041; with DCXR (UniProt Q7Z4W1), inactive: 0.039.
As for DDX49 (UniProt Q9Y6V7), the log2 fold change was inactive: 0.039.
Still for that read-out and setting: next, DENND6A (UniProt Q8IWF6): inactive: 0.066; DCUN1D5 (UniProt Q9BTE7): inactive: 0.073.
The same measure, in the same setting: next, DECR2 (UniProt Q9NUI1): inactive: 0.036; DBN1 (UniProt Q16643): inactive: -0.021.
Regarding DDX55 (UniProt Q8NHQ9), the log2 fold change is inactive: 0.014.
On the same count and under the same terms, next, DFFA (UniProt O00273): inactive: -0.043.
Take DCAF1 (UniProt Q9Y4B6): the log2 fold change is inactive: -0.005.
With DDX54 isoform 2 (UniProt Q8TDD1), the log2 fold change is active: -0.319.
For the target DECR1 (UniProt Q16698), the log2 fold change is inactive: -0.012.
As to DCTN5 (UniProt Q9BTE1), the log2 fold change is inactive: -0.03.
For D2HGDH (UniProt Q8N465), the log2 fold change is inactive: -0.052.
DERPC (UniProt P0CG12): the log2 fold change is inactive: 0.104.
Turning to DCUN1D4 isoform 3 (UniProt Q92564), the log2 fold change was inactive: -0.027.
For DCP1A (UniProt Q9NPI6), the log2 fold change was inactive: -0.066.
In the case of DDX18 (UniProt Q9NVP1), the log2 fold change was inactive: -0.013.
Same read-out and setting: with DDX46 (UniProt Q7L014) the figure was inactive: 0.027; with DDX17 (UniProt Q92841), inactive: 0.001.
The same measure, in the same setting: with DCAF7 (UniProt P61962) the figure was inactive: 0.042.
On the same count and under the same terms, with DDX39B isoform 2 (UniProt Q13838) the figure was inactive: 0.018.
Regarding DDX21 (UniProt Q9NR30), the log2 fold change was inactive: 0.021.
Consider DCTD isoform 2 (UniProt P32321), for which the log2 fold change is inactive: -0.028.
On the same count and under the same terms, next, CZIB (UniProt Q9NWV4): inactive: -0.058.

Compound in a further assay: CC[C@@H]1C(=O)N(C)c2cnc(Nc3ccc(C(=O)NC4CCN(C)CC4)cc3OC)nc2N1C1CCCC1
The assay is described as above. The essentials:
as §1
As to DDX39A (UniProt O00148), the log2 fold change was inactive: -0.049.
On to DCTN3 (UniProt O75935), for which the log2 fold change is inactive: -0.03.
Same read-out and setting: next, DDX20 (UniProt Q9UHI6): inactive: -0.087.
Still for that read-out and setting: with DDX59 (UniProt Q5T1V6) the figure was inactive: -0.015; with DEK (UniProt P35659), inactive: 0.04.
Regarding DENND4C (UniProt Q5VZ89), the log2 fold change was inactive: 0.044.
As for DCP2 (UniProt Q8IU60), the log2 fold change was inactive: 0.016.
The same measure, in the same setting: next, CYP24A1 (UniProt Q07973): inactive: 0.166; DCUN1D1 (UniProt Q96GG9): inactive: 0.033.
On to DAG1 (UniProt Q14118), for which the log2 fold change is inactive: 0.032.
The same measure, in the same setting: next, DAZAP1 (UniProt Q96EP5): inactive: 0.016.
In the case of DAB2 (UniProt P98082), the log2 fold change was inactive: 0.061.
For the target DDAH2 (UniProt O95865), the log2 fold change is inactive: -0.021.
On the same count and under the same terms, with DES (UniProt P17661) the figure was inactive: 0.045.
Take DDX6 (UniProt P26196): the log2 fold change is inactive: 0.009.
Turning to DCAF6 isoform 3 (UniProt Q58WW2), the log2 fold change was inactive: 0.01.
Still for that read-out and setting: with DCXR (UniProt Q7Z4W1) the figure was inactive: -0.002.
For the target DDX49 (UniProt Q9Y6V7), the log2 fold change is inactive: -0.05.
On the same count and under the same terms, with DENND6A (UniProt Q8IWF6) the figure was inactive: 0.029; with DCUN1D5 (UniProt Q9BTE7), inactive: -0.054; with DECR2 (UniProt Q9NUI1), inactive: -0.009.
On the same count and under the same terms, with DBN1 (UniProt Q16643) the figure was inactive: 0.011; with DDX55 (UniProt Q8NHQ9), inactive: -0.042; with DFFA (UniProt O00273), inactive: 0.038.
On the same count and under the same terms, with DCAF1 (UniProt Q9Y4B6) the figure was inactive: -0.023; with DDX54 isoform 2 (UniProt Q8TDD1), inactive: -0.069.
As for DECR1 (UniProt Q16698), the log2 fold change is inactive: -0.025.
Take DCTN5 (UniProt Q9BTE1): the log2 fold change is inactive: 0.022.
On the same count and under the same terms, with D2HGDH (UniProt Q8N465) the figure was inactive: 0.07.
Same read-out and setting: next, DERPC (UniProt P0CG12): inactive: 0.095; DCUN1D4 isoform 3 (UniProt Q92564): active: -0.321; DCP1A (UniProt Q9NPI6): inactive: 0.077.
Still for that read-out and setting: with DDX18 (UniProt Q9NVP1) the figure was inactive: -0.05; with DDX46 (UniProt Q7L014), inactive: -0.019; with DDX17 (UniProt Q92841), inactive: -0.008.
Regarding DCAF7 (UniProt P61962), the log2 fold change is inactive: -0.013.
On the same count and under the same terms, with DDX39B isoform 2 (UniProt Q13838) the figure was inactive: -0.08.
On the same count and under the same terms, with DDX21 (UniProt Q9NR30) the figure was inactive: -0.047; with DCTD isoform 2 (UniProt P32321), inactive: 0.005; with CZIB (UniProt Q9NWV4), inactive: 0.001.
